According to patent US6423519B1, “Compositions and methods for inhibiting fungal growth” (GPC Biotech Inc., priority 1998, dated 2002):
At least one compound was matched to its structure with a doubt left. Peptide text beside a SMILES is read from it.

How the values were obtained:
Format in all cases: biochemical
human GGTase = human GGTase (Homo sapiens, UniProt P53609); test: Human GGTase inhibition (Hu GG)
From the text: As described below, a variety of different compounds were synthesized and tested for inhibitory activity against human and Candida GGTase. Exemplary synthesis schemes for generating prenyltransferase inhibitors useful in the methods and compositions of the present invention are shown in FIGS. 1-56. Tables 1-5 provide Structure-Activity relationship (SAR) data for several different classes of prenyltransferase inhibitors.

C. albicans GGPTase = target: T1, C. albicans GGPTase (Candida albicans, UniProt Q8J224+Q9Y764); details: Table 3 Piperidine Analogs; read-out: IC50 (nM) Ca GG
T1 sequence (Q9Y764 1-398): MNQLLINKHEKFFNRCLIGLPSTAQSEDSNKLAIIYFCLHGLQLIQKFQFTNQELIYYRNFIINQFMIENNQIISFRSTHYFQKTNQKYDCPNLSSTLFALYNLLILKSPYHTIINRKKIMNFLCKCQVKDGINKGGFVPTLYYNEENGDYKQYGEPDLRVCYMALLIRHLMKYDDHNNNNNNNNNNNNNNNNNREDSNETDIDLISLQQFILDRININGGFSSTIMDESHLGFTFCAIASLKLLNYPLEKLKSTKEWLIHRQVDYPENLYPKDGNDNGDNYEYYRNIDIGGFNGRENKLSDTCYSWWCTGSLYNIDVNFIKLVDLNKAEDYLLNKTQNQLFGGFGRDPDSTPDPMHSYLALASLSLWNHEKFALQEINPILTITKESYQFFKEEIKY
T1 sequence (Q8J224 1-306): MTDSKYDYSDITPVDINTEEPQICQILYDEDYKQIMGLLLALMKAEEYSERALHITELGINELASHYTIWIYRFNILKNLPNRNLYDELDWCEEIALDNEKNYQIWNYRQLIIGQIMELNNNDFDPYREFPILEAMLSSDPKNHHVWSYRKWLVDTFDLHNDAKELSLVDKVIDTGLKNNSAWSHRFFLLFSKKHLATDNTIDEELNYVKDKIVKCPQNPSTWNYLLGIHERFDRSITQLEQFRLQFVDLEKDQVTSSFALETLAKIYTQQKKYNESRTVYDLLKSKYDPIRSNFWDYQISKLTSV
Method: Plate test compounds (10 μL per well) at predetermined concentration in 50% DMSO. For background control (blank) and reaction control (negative), add 10 μL of 200 μM GGPP and 10 μL 50% DMSO, respectively. Prepare assay buffer: 50 mM Tris, pH7.5, 20 mM KCL, 5 mM MgCl2, 5 μM ZnCl2, 0.5 mM Zw(3-14), 2 mM DTT and 0.1 mg/mL BSA.
Add 20 μL of C. albicans GGPTase and ^3H-GGPP in assay buffer to test compound. Preincubate enzyme and ^3H-GGPP with test compound for 15 minutes at room temperature. Add 20 μL C. albicans Rho in assay buffer. Incubate for 30 minutes at room temperature. Final assay conditions are 2 nM C. albicans GGPTase, 250 nM ^3H-GGPP and 250 nM C. albicans Rho.
Add 100 μL 15 mM GGPP, 50 mM Tris, pH7.0 and 2% BSA to quench reaction. Transfer reaction to Nickel chelate FlashPlate. Allow his-tagged C. albcians Rho to capture onto plate. Rinse plate 1× with 200 μL 20 mM Tris, pH7.0. Read in TOPCOUNT.

Hu FT = Hu FT (Homo sapiens, UniProt P49356); test: Human FT inhibition (Hu FT); details: Table 3 Piperidine Analogs

| SMILES | IC50 (human GGTase; Table 1) [nM] | IC50 (human GGTase; Table 1 Peptide Analogs) [nM] | IC50 (C. albicans GGPTase) [nM] | IC50 (human GGTase; Table 3 Piperidine Analogs) [nM] | IC50 (Hu FT) [nM] |
| --- | --- | --- | --- | --- | --- |
| CC(C)C[C@H](NC(=O)[C@H](Cc1cccc2ccccc12)NC(=O)[C@H](CS)NC(=O)[C@@H](N)CS)C(=O)O [Compound 5f] (HELM PEPTIDE1{C.C.[O=C([C@H](Cc1cccc2ccccc12)N[*:1])[*:2]].L}$$$$V2.0) | > 100 | > 100 |  |  |  |
| N[C@@H](CS)C(=O)N1CCC(C(=O)NCCSCc2c(F)cccc2Cl)(c2ccccc2)CC1 [Compound 53x] |  |  | < 100 | > 1000 | > 1000 |
| CC(C)C[C@H](NC(=O)[C@H](Cc1cccc2ccccc12)NC(=O)[C@H](CCCCCCN)NC(=O)[C@@H](N)CS)C(=O)O [Compound 5e] | > 1000 | > 1000 |  |  |  |
